Data set [1] addresses T1, HrcA (Campylobacter jejuni NCTC 11168) (UniProt Q9PPG2).
T1 sequence (looked up): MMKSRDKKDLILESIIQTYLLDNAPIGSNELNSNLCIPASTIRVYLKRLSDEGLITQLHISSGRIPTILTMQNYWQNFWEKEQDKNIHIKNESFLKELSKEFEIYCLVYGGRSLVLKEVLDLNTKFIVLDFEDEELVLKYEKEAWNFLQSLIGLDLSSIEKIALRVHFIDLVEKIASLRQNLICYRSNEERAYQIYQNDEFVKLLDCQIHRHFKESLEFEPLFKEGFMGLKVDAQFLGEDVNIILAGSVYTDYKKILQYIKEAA
Put plainly: EMSA. Particulars: EMSA: 10 mM Tris-HCl pH 8.0, 60 mM NaCl, 10 mM KCl, 5 mM MgCl2, 1 mM DTT, 0.05% NP40, 10% glycerol, residues 1-264, protein details: N-terminal 6xHis (pET15b), label: none (ethidium bromide stain), probe letters rebuilt from the primers and the genome.

The target in data set [2] is T1, HrcA (Campylobacter jejuni NCTC 11168). Put plainly: DNase I footprinting. The note with it: 42 C challenge then 25 C recovery, 45-180 nM; footprint: 5 mM Tris-HCl pH 8.0, 60 mM NaCl, 5 mM KCl, 5 mM MgCl2, 0.2 mM DTT, 0.01% NP40, 10% glycerol, salmon sperm DNA; 10 min at 25 C then 10 min at 25/37/42 C; recombinant protein; residues 1-264; protein details: N-terminal 6xHis (pET15b); label: 5'-32P on one end; probe letters rebuilt from the primers and the genome; part of a longer molecule.

Construct, isoform or probe ends are uncertain for at least one entry. Weaker means in comparison with the reference protein, sequence or condition of that experiment. Where a protein sequence is shown, tags need not be part of it. For some of these results: At least one verdict was read from the data and is not stated in words by the source.

Consider “GGATCCGCACAACAACAAAAGCTACAATGCCATAAAAAATCTTTTTCATTTTTATCCTTTAGTTTATTTTATAAAATAACTTTAGTCTATAAAACTAAACTTTTATAAATATTTTAATTTAAAGTATTGACAAAATTCATTTTTTATAGTATGATATTATCACTCTAAATTAAAGAGTGCTAAAATCAATATTTTTAAGGATGGACAAAAATGAATTTTCAACCTTTAGGAAAGCGTGTTCTAGTTAAACGCGCTCGAG (double strand) [Pgro promoter probe (EMSA)]”, for which the binding result is reported as “binds” in data set [1] (25 C, GST control, no GroE, 18.7-150 nM, recombinant …); “binds more weakly” in data set [1] (42 C challenge then 25 C recovery, 45-180 nM, recombinant protein); “binds more weakly” in data set [1] (42 C, 45-180 nM, recombinant protein).
Turning to “GCACAACAACAAAAGCTACAATGCCATAAAAAATCTTTTTCATTTTTATCCTTTAGTTTATTTTATAAAATAACTTTAGTCTATAAAACTAAACTTTTATAAATATTTTAATTTAAAGTATTGACAAAATTCATTTTTTATAGTATGATATTATCACTCTAAATTAAAGAGTGCTAAAATCAATATTTTTAAGGATGGACAAAAATGAATTTTCAACCTTTAGGAAAGCGTGTTCTAGTTAAACGCG (double strand) [Pgro promoter probe (footprint)]”, in data set [2], the binding result is “binds more weakly”.

Source of the values: paper PMC8533110.
